# Data: paper PMC10716581
# Sequences of proteins named here, by UniProt entry; tags and fusion partners are left off.
# UniProt Q06609, whole entry Q242R: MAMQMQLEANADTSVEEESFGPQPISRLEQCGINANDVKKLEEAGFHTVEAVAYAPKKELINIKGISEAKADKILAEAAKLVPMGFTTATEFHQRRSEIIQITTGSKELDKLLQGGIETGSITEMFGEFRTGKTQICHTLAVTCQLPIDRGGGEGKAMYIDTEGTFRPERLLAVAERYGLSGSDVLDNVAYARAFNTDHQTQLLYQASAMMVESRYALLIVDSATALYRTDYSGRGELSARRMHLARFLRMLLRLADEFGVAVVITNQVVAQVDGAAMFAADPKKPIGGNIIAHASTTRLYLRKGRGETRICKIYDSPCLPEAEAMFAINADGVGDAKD
# The exact form of at least one protein or probe is not confirmed. The comparison behind a weaker result is the experiment's own reference, which may not be listed here. At least one verdict rests on a figure or table, not on a statement of the authors.
# Target: RAD51-Q242R (human) (UniProt Q06609)
# Experiment: EMSA
# Details: 2 mM AMP-PNP, 10 mM Mg2+, 20 mM Hepes-NaOH pH 7.5, 0.1 mg/ml BSA, 1 mM DTT, 10 mM MgCl2, 150 mM KCl, 2 mM ATP or AMP-PNP or no nucleotide, 2.7 uM (nt) DNA, 37 C 10 min, 8% native PAGE in 1x TBE, recombinant protein, protein details: N-terminal His-tag removed with thrombin
sequence,measurement,setting,value
AAATCAATCTAAAGTATATATGAGTAAACTTGGTCTGACGTTACCAATGCTTAATCAGTGAGGCACCTATCTCAGCGATCTGTCTATTT [Cy5-OL2],binding signal (% ssDNA bound at 1 uM protein),"label: 5'-Cy5, single-stranded DNA",55
TAATACAAAATAAGTAAATGAATAAACAGAGAAAATAAAG (double strand) [Cy5-OL4/OL5 40-mer],binding result,label: 5'-Cy5 on strand 1,binds more weakly
